Source: patent US12053456B2, “Pharmaceutical compositions for combination therapy” (GENFIT, priority 2017, dated 2024)
At least one structure is not confirmed: it was looked up by name or label, or the drawing left a doubt.

Legend:
[1] = test system: α-SMA in TGFβ1-induced hHSC; assay: α-SMA ELISA in TGFβ1-activated human primary hepatic stellate cells (single agents and combination matrix, EOB/EOHSA); type: cell-based
Protocol: Serum-deprived HSC were preincubated for 1 hour with Elafibranor (A) or Nitazoxanide (B), or Bezafibrate (C) before the activation with the profibrogenic cytokine TGFβ1 (1 ng/ml). After 48 hours of incubation, the expression of α-SMA was measured by ELISA. The obtained values were transformed into percentage inhibition over TGFβ1 control. Data are presented as mean (triplicates)±standard deviation (SD)]. The curve fitting and the calculation of half maximal inhibitory concentration (IC50) were performed with XLFit software 5.3.1.3.
Combinations were tested in a dose-response matrix format and analyzed according to the excess over Bliss (EOB) additivism model. Dilution series of Elafibranor (row) and Nitazoxanide (column) were prepared, including their respective DMSO controls. The resulting mixes were added to serum-deprived HSC, 1 hour prior to the activation with the profibrogenic cytokine TGFβ1 (1 ng/ml). (A) Percentage of α-SMA inhibition over the TGFβ1 control for all combination pairs. Data are presented as mean of quadruplicates. (B) EOB scores were calculated as described in Materials and Methods. Any compound pair with positive EOB value were considered synergistic (colored from light grey to black). The total EOB score including all combinations was also calculated. (C) Data values derived from a synergistic combination pair were plotted in a bar graph representation. Data are presented as mean (quadruplicates)±standard deviation (SD). EOHSA model was used as described in the Materials and Methods section to confirm the synergism of the selected NTZ/ELA combination pairs.
Combinations were tested in a dose-response matrix format and analyzed according to the excess over Bliss (EOB) additivism model. Dilution series of Saroglitazar, Seladelpar and Lanifibranor, and Nitazoxanide were prepared, including their respective DMSO controls. […] Percentage of α-SMA inhibition over the TGFβ1 control for all combination pairs was calculated. EOB scores were calculated as described in Materials and Methods. […]

[2] = test system: fibrosing NASH-model of mice fed a CDAA+1% cholesterol diet; assay: Hepatic fibrosis percentage (picrosirius red histology) in chronic CDAA+1% cholesterol model of fibrosing NASH (12 weeks); type: in vivo, C57Bl/6J mice; conditions: CDAA+1% cholesterol diet supplemented with compound, versus CDAA+1% chol diet
[3] = test system: hepatic markers of fibrosis (αSMA, CCR2, CCR5, Col1a2, MMP2, TIMP2, TGFβ1); assay: Hepatic gene expression of markers of fibrosis (qPCR) in chronic CDAA+1% cholesterol model of fibrosing NASH (12 weeks); type: in vivo, C57Bl/6J mice; conditions: CDAA+1% cholesterol diet supplemented with compound, normalized to GAPDH
[4] = single agent, 1 hour preincubation, TGFβ1 1 ng/ml, 48 hours, α-SMA ELISA

Row | Compound | antifibrotic activity (α-SMA) in TGFβ-induced hHSC ([1]; NTZ alone at 0.6 μM) | antifibrotic activity (α-SMA) in TGFβ-induced hHSC [1, 4] | fibrosis percentage (collagen surface to the whole tissue) [2] | gene expression of different hepatic markers of fibrosis [3]
1 | CC(=O)Oc1ccccc1C(=O)Nc1ncc([N+](=O)[O-])s1 [NTZ, [2-[(5-nitro-1,3-thiazol-2-yl)carbamoyl]phenyl]ethanoate] | almost no antifibrotic activity | anti-fibrotic activity | decreases the fibrosis percentage | decreases the level of the different gene expression
2 | CC(C)(Oc1ccc(CCNC(=O)c2ccc(Cl)cc2)cc1)C(=O)O [bezafibrate, Bezafibrate] |  | weak activity |  | 
